# Where “and” joins values, the source holds several entries; their conditions need not be identical. Identical values can stand only once. Counter-ions that a name gives are not always drawn. ± gives the standard deviation of the averaged measurements. The list shows a part of the results. Plates or batches differ in their baseline, so values are only roughly comparable.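 Culture-activated primary human stellate myofibroblasts, where regained lipid droplets signal inactivation. Value: share of Hoechst-counted cells above a per-plate Bodipy cutoff, in duplicate wells, with DMSO negative and nortriptyline positive controls on each plate. Hits: a control-normalized score above the plate's top-tenth-percentile nortriptyline wells, or one of a plate's three best wells. Final well concentrations are not given.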
# Test system: primary human hepatic stellate cells (donor 1)
# Assay: percent Bodipy-positive cells; higher = more lipid droplet accumulation
# Conditions: 48 h
# [1] = library stock concentration: 10 mM
# [2] = library stock concentration: 6.3 mM
# [3] = library stock concentration: 3.33 mM
# [4] = library stock concentration: 4.7 mM
# [5] = library stock concentration: 1 mM
# [6] = library stock concentration: 80 uM
# [7] = library stock concentration: 400 uM
# [8] = library stock concentration: 2 mM
# [9] = library stock concentration: 6.2 mM
smiles,measurement,setting,value
CS(=O)(=O)O.Cc1ccc2c(c1)c1c3n2CCNC3CCC1 (stereo unspecified) [Pirlindole mesylate],percent Bodipy-positive cells,[1],55.61 ± 0.34%
"CN(C)c1nc(N)c(C(=O)NC(=N)N)nc1Cl [5-(N,N-Dimethyl)amiloride hydrochloride]",percent Bodipy-positive cells,[1],50.4 ± 18%
N[C@@H](C(=O)O)c1ccc(O)c(C(=O)O)c1 [(R)-3-Carboxy-4-hydroxyphenylglycine],percent Bodipy-positive cells,[1],10.2 ± 3.6%
CCn1cc(C(=O)O)c(=O)c2cc(F)c(N3CCNCC3)cc21,percent Bodipy-positive cells,[1],27.4 ± 5.5%
CCn1cc(C(=O)O)c(=O)c2cc(F)c(N3CCNCC3)cc21 [Norfloxacin],percent Bodipy-positive cells,,25.2 ± 2.9%
same,percent Bodipy-positive cells,[2],8.16% and 3.6%
same,percent Bodipy-positive cells,[1],9.25 ± 2.8%
N[C@H](C(=O)O)[C@H](Cc1ccccc1)C(=O)O [L-Beta-threo-benzyl-aspartate],percent Bodipy-positive cells,[1],16.9 ± 0.58%
CN(C)CCCN1c2ccccc2Sc2ccc(Cl)cc21 [Chlorpromazine],percent Bodipy-positive cells,[2],74.6 ± 4.8%
CC(C)C[C@H](NC(=O)CNC(=O)c1cc(Cl)ccc1Cl)B1OC(=O)CC(CC(=O)O)(C(=O)O)O1 (stereo partly specified),percent Bodipy-positive cells,[3],33.3 ± 7.6%
same,percent Bodipy-positive cells,[1],65 ± 3.8%
Cc1nc2c(OCc3ccccc3)cccn2c1CC#N,percent Bodipy-positive cells,[1],26.2% and 6.07%
CCOC(=O)C1=C(C)NC(C)=C(C(=O)OC)C1c1cccc([N+](=O)[O-])c1 (stereo unspecified),percent Bodipy-positive cells,[1],23.7 ± 3%
CCOC(=O)C1=C(C)NC(C)=C(C(=O)OC)C1c1cccc([N+](=O)[O-])c1 (stereo unspecified) [Nitrendipine],percent Bodipy-positive cells,,10.4 ± 3.6%
same,percent Bodipy-positive cells,[3],11.4 ± 0.54%
CC1(C)S[C@@H]2[C@H](N3C(=O)[C@@H](c4ccccc4)NC3(C)C)C(=O)N2[C@H]1C(=O)O [Hetacillin potassium],percent Bodipy-positive cells,[4],4.13 ± 0.86%
same,percent Bodipy-positive cells,[1],15.06 ± 0.09%
CN1CCN(c2ccc(OC(F)(F)F)c(Nc3ncc4c(n3)-c3c(c(C(N)=O)nn3CCO)CC4)c2)CC1,percent Bodipy-positive cells,[1],61.1 ± 7.1%
O=C(CCCCCCCCCCCCC1CCCC1)Nc1ccc(S(=O)(=O)c2ccc(NC(=O)CCCCCCCCCCCCC3CCCC3)cc2)cc1 [Chaulmosulfone],percent Bodipy-positive cells,[1],42.9 ± 9.3%
C=C1C[C@H](O)[C@H](C/C=C\CCCC(=O)O)[C@H]1/C=C/C(=O)CCCCC [11-deoxy-11-methylene-15-keto Prostaglandin D2],percent Bodipy-positive cells,[5],7.4 ± 0.48%
COc1cc(C[C@H]2C(=O)OC[C@@H]2Cc2ccc(OC)c(OC)c2)ccc1O [Arctigenin],percent Bodipy-positive cells,[1],8.71 ± 1.1%
NS(=O)(=O)c1cc2c(cc1C(F)(F)F)NC(Cc1ccccc1)NS2(=O)=O (stereo unspecified) [Bendroflumethiazide],percent Bodipy-positive cells,,13.7 ± 1.1%
same,percent Bodipy-positive cells,[4],17.8 ± 3.2%
NS(=O)(=O)c1cc2c(cc1C(F)(F)F)NC(Cc1ccccc1)NS2(=O)=O (stereo unspecified) [Bendrofluazide],percent Bodipy-positive cells,[1],28 ± 2.7%
NS(=O)(=O)c1cc2c(cc1C(F)(F)F)NC(Cc1ccccc1)NS2(=O)=O (stereo unspecified) [Bendrofumethiazide],percent Bodipy-positive cells,[1],58.7 ± 31%
CNC(=O)c1ccccc1Sc1ccc2c(/C=C/c3ccccn3)n[nH]c2c1 [Axitinib],percent Bodipy-positive cells,[6],18.7 ± 8.1%
same,percent Bodipy-positive cells,[7],15.4 ± 5.3%
same,percent Bodipy-positive cells,[8],15.5 ± 1.1%
same,percent Bodipy-positive cells,[3],14.6 ± 5.1%
CNC(=O)c1ccccc1Sc1ccc2c(/C=C/c3ccccn3)n[nH]c2c1,percent Bodipy-positive cells,[7],12.4 ± 2.4%
same,percent Bodipy-positive cells,[8],15.1 ± 1.6%
same,percent Bodipy-positive cells,[1],33.2 ± 16%
Cc1ccc(NC(=O)Nc2cc(C(F)(F)F)ccc2F)cc1Nc1ccc2c(c1)NC(=O)/C2=C\c1ccc[nH]1,percent Bodipy-positive cells,[6],15.2 ± 2.8%
same,percent Bodipy-positive cells,[7],32 ± 3.6%
CC(C)(NS(=O)(=O)c1ccc(Oc2ccc(F)cc2)cc1)C(=O)NO,percent Bodipy-positive cells,[1],51.4 ± 0.34%
CC(CN1c2ccccc2Sc2ccccc21)N(C)C (stereo unspecified) [Promethazine hydrochloride],percent Bodipy-positive cells,,54.6 ± 6.8%
same,percent Bodipy-positive cells,[9],66 ± 1.1%
same,percent Bodipy-positive cells,[1],72.7 ± 3.2%
CC(CN1c2ccccc2Sc2ccccc21)N(C)C (stereo unspecified) [Promethazine HCl],percent Bodipy-positive cells,[3],27.7 ± 6.4%
same,percent Bodipy-positive cells,library stock concentration: 7 mM,48.9 ± 3.1%
same,percent Bodipy-positive cells,[1],80.14 ± 0.38%
CC(CN1c2ccccc2Sc2ccccc21)N(C)C (stereo unspecified) [Phenergan],percent Bodipy-positive cells,[1],79.3 ± 9.7%
CCOc1cc(N2CCC(O)CC2)ccc1Nc1ncc2c(n1)N(C)c1ccccc1C(=O)N2C,percent Bodipy-positive cells,[6],10.3 ± 5.8%
same,percent Bodipy-positive cells,[7],7.65 ± 3.6%
same,percent Bodipy-positive cells,[8],12 ± 4.1%
same,percent Bodipy-positive cells,[3],43.3 ± 8.6%
S=C=Nc1cccc(NC(=S)NCCCCNC(=S)Nc2cccc(N=C=S)c2)c1,percent Bodipy-positive cells,[3],9.7 ± 0.91%
same,percent Bodipy-positive cells,[1],14.5 ± 2.3%
CC(C)[C@H](CO)Nc1nc(Nc2cc(N)cc(Cl)c2)c2ncn(C(C)C)c2n1 [Aminopurvalanol A],percent Bodipy-positive cells,[3],5.12 ± 0.26%
same,percent Bodipy-positive cells,[1],12 ± 1%
O=C(c1ccc(OCCN2CCCCC2)cc1)c1c(-c2ccc(O)cc2)sc2cc(O)ccc12 [Raloxifene hydrochloride],percent Bodipy-positive cells,,22 ± 7.6%
O=C(c1ccc(OCCN2CCCCC2)cc1)c1c(-c2ccc(O)cc2)sc2cc(O)ccc12,percent Bodipy-positive cells,[1],88.8 ± 3%
O=C(c1ccc(OCCN2CCCCC2)cc1)c1c(-c2ccc(O)cc2)sc2cc(O)ccc12 [Raloxifene HCl],percent Bodipy-positive cells,[3],14.3 ± 6.3%
same,percent Bodipy-positive cells,[1],61.9 ± 0.96%
O=C1c2ccccc2-c2n[nH]c3cccc1c23 [JNK Inhibitor II],percent Bodipy-positive cells,[3],18.4 ± 0.78%
O=C1c2ccccc2-c2n[nH]c3cccc1c23,percent Bodipy-positive cells,[6],24.2 ± 1.1%
same,percent Bodipy-positive cells,[7],27.2 ± 7.4%
same,percent Bodipy-positive cells,[8],15.2 ± 1%
same,percent Bodipy-positive cells,[3],8.1 ± 5.6%
CCOc1nc(NC(=O)Cc2cc(OC)ccc2OC)cc(N)c1C#N [JNK Inhibitor VIII],percent Bodipy-positive cells,[3],11.9 ± 0.42%
CCCCC[C@H](O)/C=C/[C@@H]1[C@@H](C/C=C\CCCC(=O)O)[C@H](O)C[C@H]1O [Prostaglandin F2.beta.],percent Bodipy-positive cells,[5],11.7 ± 2.9%
CCCCC[C@H](O)/C=C/[C@@H]1[C@@H](C/C=C\CCCC(=O)O)[C@H](O)C[C@H]1O [Prostaglandin F2.beta. (tromethamine salt)],percent Bodipy-positive cells,[5],9.92 ± 3.5%
"CCCCC[C@H](O)/C=C/[C@@H]1[C@@H](C/C=C\CCCC(=O)O)[C@H](O)C[C@H]1O [9b,11a-Prostaglandin F2]",percent Bodipy-positive cells,[5],10.9 ± 5%
CNC(=O)c1ccc(N2C(=S)N(c3cnc(C#N)c(C(F)(F)F)c3)C(=O)C23CCC3)cc1F,percent Bodipy-positive cells,[3],7.54 ± 3.3%
same,percent Bodipy-positive cells,[1],13.5 ± 8.5%
CCO/C(O)=C1\C(COCCN)=NC(C)=C(C(=O)OC)C1c1ccccc1Cl (stereo unspecified),percent Bodipy-positive cells,[1],99 ± 0.99%
COc1cc(C=C(C#N)C(N)=O)cc(CSc2nc3ccccc3s2)c1O [Tyrphostin AG-825],percent Bodipy-positive cells,library stock concentration: 12.6 mM,21.7 ± 3.6%
CNCCCN1c2ccccc2CCc2ccccc21.Cl,percent Bodipy-positive cells,[1],97.64 ± 0.96%
CCCCCCCCCCCCCC(=O)OCC [Myristic Acid ethyl ester],percent Bodipy-positive cells,[5],11.6 ± 0.72%
CC1(C)CCCC2(C)C1CCC1(C)OC(=O)CC12 (stereo unspecified) [Sclareolide],percent Bodipy-positive cells,[3],8.63 ± 0.55%
same,percent Bodipy-positive cells,[1],28.1 ± 2.6%
Cc1onc(-c2ccccc2)c1C(=O)N[C@@H]1C(=O)N2[C@@H]1SC(C)(C)[C@@H]2C(=O)O [Oxacillin sodium monohydrate],percent Bodipy-positive cells,library stock concentration: 5 mM,11.1 ± 2.5%
Cc1onc(-c2ccccc2)c1C(=O)N[C@@H]1C(=O)N2[C@@H]1SC(C)(C)[C@@H]2C(=O)O [Oxacillin sodium],percent Bodipy-positive cells,[4],3.35 ± 3.2%
same,percent Bodipy-positive cells,[1],10.3 ± 2.5%
Cc1onc(-c2ccccc2)c1C(=O)N[C@@H]1C(=O)N2[C@@H]1SC(C)(C)[C@@H]2C(=O)O [Micropenin],percent Bodipy-positive cells,[1],56.2 ± 5.8%
O=C(O)CNC(=O)C(CS)Cc1ccccc1 (stereo unspecified) [Thiorphan],percent Bodipy-positive cells,,26.8 ± 4.3%
CN(C)[C@@H](CCOc1cccc2ccccc12)c1ccccc1 [Dapoxetine HCl],percent Bodipy-positive cells,[3],58.1 ± 20%
same,percent Bodipy-positive cells,[1],91.9 ± 4.5%
CN(C)CCCC1(c2ccc(F)cc2)OCc2cc(C#N)ccc21 (stereo unspecified) [Citalopram],percent Bodipy-positive cells,[9],35.5% and 51.3%
same,percent Bodipy-positive cells,[1],70.7 ± 1.5%
CN(C)CCCC1(c2ccc(F)cc2)OCc2cc(C#N)ccc21 (stereo unspecified) [Citalopram Hydrobromide],percent Bodipy-positive cells,,28.5 ± 0.51%
CN(C)CCCC1(c2ccc(F)cc2)OCc2cc(C#N)ccc21 (stereo unspecified) [Citalopram hydrobromide],percent Bodipy-positive cells,[1],48.4% and 45.8%
Nn1nnc2ccccc21 [1-Aminobenzotriazole],percent Bodipy-positive cells,[1],33.6 ± 2.6%
CCCCC[C@H](O)/C=C/[C@H]1CCC(=O)[C@@H]1C/C=C\CCCC(=O)O [11-deoxy Prostaglandin E2],percent Bodipy-positive cells,[5],27.4 ± 0.92%
"CC[C@H](Nc1ncnc2[nH]cnc12)c1nc2cccc(F)c2c(=O)n1-c1ccccc1 [CAL-101 (Idelalisib, GS-1101)]",percent Bodipy-positive cells,[3],12 ± 2.4%
same,percent Bodipy-positive cells,[1],16.6 ± 5.2%
CC[C@H](Nc1ncnc2[nH]cnc12)c1nc2cccc(F)c2c(=O)n1-c1ccccc1,percent Bodipy-positive cells,[6],9.46 ± 2.3%
same,percent Bodipy-positive cells,[7],6.2 ± 1.8%
same,percent Bodipy-positive cells,[8],3.57 ± 0.57%
same,percent Bodipy-positive cells,[1],8.96 ± 0.46%
COc1cc2c(N3CCN(C(=O)Nc4ccc(OC(C)C)cc4)CC3)ncnc2cc1OCCCN1CCCCC1,percent Bodipy-positive cells,[1],99.461 ± 0.037%
CCCCCCCCCCCCCC(=O)N[C@H](CO)[C@H](O)c1ccc([N+](=O)[O-])cc1,percent Bodipy-positive cells,[5],7.27 ± 0.62%
CCCCCCCOC(=O)Cc1c(C)n(C(=O)c2ccc(Cl)cc2)c2ccc(OC)cc12 [Indomethacin heptyl ester],percent Bodipy-positive cells,[5],7.23 ± 0.47%
Nc1nccc(-c2c(-c3ccc(F)cc3)ncn2C2CCNCC2)n1,percent Bodipy-positive cells,[3],27.7 ± 3.7%
COc1ccccc1CNCCCCCCNCCCCCCCCNCCCCCCNCc1ccccc1OC [Methoctramine tetrahydrochloride],percent Bodipy-positive cells,[1],98.9 ± 1.5%
CC(C)c1noc(N2CCC(COc3ccc(-c4ccc(S(C)(=O)=O)cc4)nc3)CC2)n1,percent Bodipy-positive cells,[3],13.5 ± 2.1%
same,percent Bodipy-positive cells,[1],36.6 ± 5.2%
CCC(=O)Nc1cccc(Oc2nc(Nc3ccc(N4CCN(C)CC4)cc3OC)ncc2Cl)c1,percent Bodipy-positive cells,[1],95.3 ± 2.2%
O=C(NC1CCNCC1)c1n[nH]cc1NC(=O)c1c(Cl)cccc1Cl,percent Bodipy-positive cells,[6],46.3 ± 9.4%
same,percent Bodipy-positive cells,[7],41.3% and 57.2%
same,percent Bodipy-positive cells,[8],54% and 63.8%
same,percent Bodipy-positive cells,[3],45.3 ± 11%
same,percent Bodipy-positive cells,[1],69.4% and 60.4% and 73.6%
CNC(=O)c1c(I)c(NC(C)=O)c(I)c(C(=O)O)c1I,percent Bodipy-positive cells,[1],53.9 ± 10%
"C[C@H](NC(=O)/C(C#N)=C/c1ccc(O)c(O)c1)c1ccccc1 [Tyrphostin B44, (+) enantiomer]",percent Bodipy-positive cells,[1],6.46 ± 1.7%
C[C@H](NC(=O)/C(C#N)=C/c1ccc(O)c(O)c1)c1ccccc1 [Tyrphostin AG 835],percent Bodipy-positive cells,[1],12.1 ± 5.1%
O=S(=O)(NCCNC/C=C/c1ccc(Br)cc1)c1cccc2cnccc12,percent Bodipy-positive cells,[6],14 ± 4.8%
same,percent Bodipy-positive cells,[7],9.63 ± 0.64%
same,percent Bodipy-positive cells,[8],19.57 ± 0.043%
"O=S(=O)(NCCNC/C=C/c1ccc(Br)cc1)c1cccc2cnccc12 [H-89, Dihydrochloride]",percent Bodipy-positive cells,[3],22.8 ± 6%
O[C@@H](COc1cccc2ncccc12)CN1CCN(C2c3ccccc3[C@@H]3[C@H](c4ccccc42)C3(F)F)CC1 (stereo partly specified),percent Bodipy-positive cells,[3],28.9 ± 5.2%
same,percent Bodipy-positive cells,[1],83.5 ± 10%
COc1ccc(-c2coc3cc(O)cc(O)c3c2=O)cc1 [Biochanin A],percent Bodipy-positive cells,[3],19.8 ± 14%
same,percent Bodipy-positive cells,[1],9.51 ± 1.1%
CN(CCCOc1ccc(Cc2ccccc2)cc1)CCC(=O)O,percent Bodipy-positive cells,[1],19 ± 1.5%
CN1CCC(CNc2ccc3ncc(-c4cccc(OC(F)(F)F)c4)n3n2)CC1,percent Bodipy-positive cells,[8],88.56 ± 0.8%

# Source: the supplement of paper PMC9135407
